From article PMC11821526

Chains of the proteins cited; added tags and fusions are not shown. Lines headed by an entry give the natural chain unless they say otherwise; changes in a name come on top.
UniProt Q5XUX0: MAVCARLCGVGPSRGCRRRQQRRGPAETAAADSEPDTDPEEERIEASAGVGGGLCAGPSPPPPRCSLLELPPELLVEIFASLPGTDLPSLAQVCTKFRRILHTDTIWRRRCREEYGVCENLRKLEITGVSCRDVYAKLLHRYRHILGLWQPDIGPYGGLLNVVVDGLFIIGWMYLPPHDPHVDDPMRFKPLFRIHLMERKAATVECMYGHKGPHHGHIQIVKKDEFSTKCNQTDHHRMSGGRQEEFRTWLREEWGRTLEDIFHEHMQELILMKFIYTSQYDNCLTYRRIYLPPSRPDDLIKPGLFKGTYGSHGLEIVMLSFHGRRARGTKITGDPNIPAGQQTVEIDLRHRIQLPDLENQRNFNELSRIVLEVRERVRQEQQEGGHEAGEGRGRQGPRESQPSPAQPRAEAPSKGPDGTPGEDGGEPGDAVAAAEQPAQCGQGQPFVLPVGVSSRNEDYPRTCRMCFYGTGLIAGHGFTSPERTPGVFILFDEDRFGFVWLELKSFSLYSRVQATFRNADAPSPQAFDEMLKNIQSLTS
UniProt P15104: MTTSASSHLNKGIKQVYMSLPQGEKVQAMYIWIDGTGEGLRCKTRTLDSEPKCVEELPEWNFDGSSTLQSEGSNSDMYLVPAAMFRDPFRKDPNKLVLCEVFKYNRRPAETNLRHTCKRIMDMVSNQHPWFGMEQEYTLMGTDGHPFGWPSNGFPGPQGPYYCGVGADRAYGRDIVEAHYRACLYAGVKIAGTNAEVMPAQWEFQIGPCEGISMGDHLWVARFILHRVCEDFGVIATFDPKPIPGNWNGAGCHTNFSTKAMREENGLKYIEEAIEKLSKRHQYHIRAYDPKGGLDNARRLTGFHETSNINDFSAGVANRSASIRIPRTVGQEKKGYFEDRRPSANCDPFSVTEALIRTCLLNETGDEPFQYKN
UniProt P24385: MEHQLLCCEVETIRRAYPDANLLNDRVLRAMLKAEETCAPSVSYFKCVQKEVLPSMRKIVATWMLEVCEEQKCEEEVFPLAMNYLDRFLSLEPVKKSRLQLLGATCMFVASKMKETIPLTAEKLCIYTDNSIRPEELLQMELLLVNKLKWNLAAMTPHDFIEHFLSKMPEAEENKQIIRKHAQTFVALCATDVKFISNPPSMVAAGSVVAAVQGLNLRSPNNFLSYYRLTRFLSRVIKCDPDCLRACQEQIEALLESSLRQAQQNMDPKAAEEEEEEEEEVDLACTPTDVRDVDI

Assays:
[1] = molecular target: HA–FBXO31(ΔF-box) (human) (UniProt Q5XUX0); test: co-IP; as a5, cells without H2O2 treatment
[2] = molecular target: HA–FBXO31(ΔF-box) (human) (UniProt Q5XUX0); test: co-IP; HA–FBXO31(ΔF-box) cDNAs in FBXO31-knockout HEK293T cells under oxidative stress (H2O2 200 µM 20 min; also menadione 10 µM 2 h or auranofin 10 µM 2 h), 500 nM epoxomicin; anti-HA magnetic beads in SCF-IP buffer; immunoblot of endogenous clients
[3] = molecular target: HA–FBXO31(D334N,ΔF-box) (human) (UniProt Q5XUX0); test: co-IP; HA-FBXO31 cDNAs stably expressed in FBXO31-knockout HEK293 cells; mCherry–pep2 conjugates nucleofected 2 h before collection; 2 µM MLN4924 and 500 nM epoxomicin; anti-HA magnetic beads in SCF-IP buffer (150 mM NaCl, 50 mM Tris-HCl, 1 mM EDTA, 0.1% Igepal CA-630, 5% glycerol, pH 7.5), 4 °C overnight; immunoblot

| binding [2] | binding [3] | Substance | binding [1] |
| --- | --- | --- | --- |
| binds | – | GLUL (glutamine synthetase) (from UniProt P15104 1-373) | no binding (only cells without H2O2 treatment) |
| – | no binding | cyclin D1 (unmodified) (from UniProt P24385 1-295) | – |

No constants are given. Whether binding was seen depends on the method and setting. In cells and extracts the contact can be indirect. For part of these data: A result given as binding can be weak or reduced; the word gives no strength.
